PubChem BioAssay AID1224828 | NIAID, 2016
Here is a random part of about 17,000 reagents. Of all reagents, 762 (4.5%) got an active call. 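Active calls include both raised and lowered p65 entry, mostly lowered; wells with fewer than 50 cells lack a z-score.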 The raw values are shown without normalisation. Entries without a mark were called inactive.

Screen: 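Find genes required for NF-kappaB p65 moving into the nucleus after LPS in mouse macrophages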 (primary screen)
System: mouse RAW264.7 G9 macrophage reporter cells (GFP-p65, Tnf promoter-mCherry)
Knock-down reagent: siRNA pool against mouse genes, 100 nM
Time to read-out: 2 days siRNA transfection, then 40 min LPS before fixation
Treatment: LPS (Salmonella minnesota R595) at 10 ng/ml
Measured: 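Imaged p65 nuclear translocation ratio, normalised to the plate median, converted to robust z-scores and averaged across two replicates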
Direction: p65 translocation robust z-score: higher = more nuclear NF-kappaB p65 after LPS than the plate median; nuclear/cytoplasmic p65 ratio: higher = more nuclear NF-kappaB p65
Call rule: 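Called active when z exceeds 3.3 or falls under -1.56 (median of Tlr4 controls), giving activity score of at least 50; no calls for control wells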
Calls: active = hit (p65 shift raised or lowered); inactive = no clear change

target	p65 translocation robust z-score	nuclear/cytoplasmic p65 ratio, rep 1	nuclear/cytoplasmic p65 ratio, rep 2	low cell count flag
Or5ac24 (olfactory receptor family 5 subfamily AC member 24)	2.39	1.83	1.86	enough cells to score
Defb39 (defensin beta 39)	-0.12	1.53	2.12	enough cells to score
Nhp2 (NHP2 ribonucleoprotein)		1.3	0	fewer than 50 cells per well; well left out of scoring
Sparcl1 (SPARC-like 1)	-1.6 (active)	1.38	1.27	enough cells to score
Omg (oligodendrocyte myelin glycoprotein)	-0.02	1.43	1.25	enough cells to score
Bcl11a (BCL11 transcription factor A)	-0.54	1.47	1.59	enough cells to score
Best1 (bestrophin 1)	-0.81	1.42	1.36	enough cells to score
Sema7a		1.27	1.13	fewer than 50 cells per well; well left out of scoring
Vmn1r33 (vomeronasal 1 receptor 33)		1.42	1.3	fewer than 50 cells per well; well left out of scoring
Gstp3 (glutathione S-transferase pi 3)	-0.22	1.58	1.76	enough cells to score
Trem1 (triggering receptor expressed on myeloid cells 1)	-0.23	1.48	1.47	enough cells to score
Fbxo34 (F-box protein 34)	0.49	1.65	1.55	enough cells to score
Gm16938 (predicted gene, 16938)		1.99		fewer than 50 cells per well; well left out of scoring
Zfpl1 (zinc finger like protein 1)	1.33	1.59	1.23	enough cells to score
Spata16 (spermatogenesis associated 16)		1.19	1.05	fewer than 50 cells per well; well left out of scoring
Fahd1 (fumarylacetoacetate hydrolase domain containing 1)	0.26	1.65	1.66	enough cells to score
Mov10 (Mov10 RISC complex RNA helicase)	1.23	2.04	1.73	enough cells to score
Magix (MAGI family member, X-linked)	0.93	1.4	1.35	enough cells to score
Serinc5 (serine incorporator 5)	0.66	1.45	1.64	enough cells to score
Opcml (opioid binding protein/cell adhesion molecule-like)	-1	1.21	1.14	enough cells to score
Gpt2 (glutamic pyruvate transaminase (alanine aminotransferase) 2)	-1.54	1.51	1.34	enough cells to score
Olah (oleoyl-ACP hydrolase)	-0.43	1.45	1.47	enough cells to score
Zfyve27 (zinc finger, FYVE domain containing 27)	1.54	1.58	1.46	enough cells to score
E230025N22Rik (Riken cDNA E230025N22 gene)	0.74	1.64	1.39	enough cells to score
Cmtm7 (CKLF-like MARVEL transmembrane domain containing 7)	-0.63	1.39	1.29	enough cells to score
Fhl4 (four and a half LIM domains 4)		1.32	1.19	fewer than 50 cells per well; well left out of scoring
Rhog (ras homolog family member G)	-0.9	1.41	1.37	enough cells to score
Sgk3 (serum/glucocorticoid regulated kinase 3)	0.12	1.71	1.39	enough cells to score
Macroh2a3 (macroH2A.3 histone)	0.43	1.57	1.62	enough cells to score
Wdr45b (WD repeat domain 45B)	0.05	1.49	1.51	enough cells to score
BC048679 (cDNA sequence BC048679)		1.64	1.26	fewer than 50 cells per well; well left out of scoring
Ddb1 (damage specific DNA binding protein 1)	1	1.66	1.47	enough cells to score
Aldh9a1 (aldehyde dehydrogenase 9, subfamily A1)	1.55	1.8	1.9	enough cells to score
Glra4 (glycine receptor, alpha 4 subunit)	1.69	1.84	1.7	enough cells to score
Sema3d	-0.07	1.44	1.21	enough cells to score
Fam178b (family with sequence similarity 178, member B)	-0.29	1.27	1.48	enough cells to score
Arhgap32 (Rho GTPase activating protein 32)	0.4	1.53	1.39	enough cells to score
Or2z8 (olfactory receptor family 2 subfamily Z member 8)		1.37	1.36	fewer than 50 cells per well; well left out of scoring
Stxbp5l (syntaxin binding protein 5-like)	0.4	1.36	1.58	enough cells to score
Pcdhga6 (protocadherin gamma subfamily A, 6)	1.37	1.61	1.42	enough cells to score
Aoc1 (amine oxidase, copper-containing 1)	0.71	1.79	1.65	enough cells to score
Or1e30 (olfactory receptor family 1 subfamily E member 30)	-0.05	1.68	1.35	enough cells to score
Slc1a1	-0.05	1.61	1.42	enough cells to score
Ccl19 (C-C motif chemokine ligand 19)	-0.8	1.33	1.3	enough cells to score
Or9g8 (olfactory receptor family 9 subfamily G member 8)	2.69	2.05	1.99	enough cells to score
Mrpl36 (mitochondrial ribosomal protein L36)	-0.16	1.72	1.6	enough cells to score
Psme2		1.05	1.46	fewer than 50 cells per well; well left out of scoring
Rogdi (rogdi homolog)	-0.66	1.67	1.44	enough cells to score
Nrn1l (neuritin 1-like)	0.94	1.8	1.53	enough cells to score
Angptl3 (angiopoietin-like 3)	0	1.61	1.63	enough cells to score
Ndufb9 (NADH:ubiquinone oxidoreductase subunit B9)	-0.93	1.64	1.44	enough cells to score
Akt3 (Akt serine/threonine kinase 3)		2.45	0.897	fewer than 50 cells per well; well left out of scoring
Fbxl5 (F-box and leucine-rich repeat protein 5)	1.14	1.59	1.54	enough cells to score
Mars2 (methionine-tRNA synthetase 2 (mitochondrial))	1.29	1.77	2	enough cells to score
Sec24c (SEC24 homolog C, COPII coat complex component)		1.56	1.16	fewer than 50 cells per well; well left out of scoring
Kpnb1 (karyopherin subunit beta 1)		1.37	1.62	fewer than 50 cells per well; well left out of scoring
Defb7 (defensin beta 7)	-0.09	1.6	1.49	enough cells to score
Banp (BTG3 associated nuclear protein)	-0.72	1.51	1.5	enough cells to score
Nucks1	-0.26	1.49	1.51	enough cells to score

Reformatted: 9 of the entries above.
{"target": "Glra4 (glycine receptor, alpha 4 subunit)", "p65 translocation robust z-score": 1.69, "nuclear/cytoplasmic p65 ratio, rep 1": 1.84, "nuclear/cytoplasmic p65 ratio, rep 2": 1.7, "low cell count flag": "enough cells to score"}
{"target": "Sema3d", "p65 translocation robust z-score": -0.07, "nuclear/cytoplasmic p65 ratio, rep 1": 1.44, "nuclear/cytoplasmic p65 ratio, rep 2": 1.21, "low cell count flag": "enough cells to score"}
{"target": "Fam178b (family with sequence similarity 178, member B)", "p65 translocation robust z-score": -0.29, "nuclear/cytoplasmic p65 ratio, rep 1": 1.27, "nuclear/cytoplasmic p65 ratio, rep 2": 1.48, "low cell count flag": "enough cells to score"}
{"target": "Arhgap32 (Rho GTPase activating protein 32)", "p65 translocation robust z-score": 0.4, "nuclear/cytoplasmic p65 ratio, rep 1": 1.53, "nuclear/cytoplasmic p65 ratio, rep 2": 1.39, "low cell count flag": "enough cells to score"}
{"target": "Or2z8 (olfactory receptor family 2 subfamily Z member 8)", "nuclear/cytoplasmic p65 ratio, rep 1": 1.37, "nuclear/cytoplasmic p65 ratio, rep 2": 1.36, "low cell count flag": "fewer than 50 cells per well; well left out of scoring"}
{"target": "Stxbp5l (syntaxin binding protein 5-like)", "p65 translocation robust z-score": 0.4, "nuclear/cytoplasmic p65 ratio, rep 1": 1.36, "nuclear/cytoplasmic p65 ratio, rep 2": 1.58, "low cell count flag": "enough cells to score"}
{"target": "Pcdhga6 (protocadherin gamma subfamily A, 6)", "p65 translocation robust z-score": 1.37, "nuclear/cytoplasmic p65 ratio, rep 1": 1.61, "nuclear/cytoplasmic p65 ratio, rep 2": 1.42, "low cell count flag": "enough cells to score"}
{"target": "Aoc1 (amine oxidase, copper-containing 1)", "p65 translocation robust z-score": 0.71, "nuclear/cytoplasmic p65 ratio, rep 1": 1.79, "nuclear/cytoplasmic p65 ratio, rep 2": 1.65, "low cell count flag": "enough cells to score"}
{"target": "Or1e30 (olfactory receptor family 1 subfamily E member 30)", "p65 translocation robust z-score": -0.05, "nuclear/cytoplasmic p65 ratio, rep 1": 1.68, "nuclear/cytoplasmic p65 ratio, rep 2": 1.35, "low cell count flag": "enough cells to score"}
